Data taken from patent US20260152494A1, “CDK2 INHIBITORS AND METHODS OF USING THE SAME” (Cedilla Therapeutics, Inc., priority 2022, published 2026).
The match of structure and compound is tentative.

Legend:
[1] = tested on: Kuramochi cells labeled with mApple-H2B; test: IncuCyte cell proliferation assay; settings: read-out: IncuCyte Kuramochi RB-WT: IC50, 72 hours, cell count normalized to DMSO
Procedure: Example A3: IncuCyte® Cell Proliferation Assay
IncuCyte® assay was used to measure the effect of disclosed compounds on cell proliferation. Fluorescent microscopy images of cells were taken immediately after compound treatment and 72 hours later. Image analysis software was used to obtain cell counts as a function of compound concentration. Kuramochi cells labeled with mApple-H2B were seeded on 384-well assay-ready plates. Plates were placed in an IncuCyte® (Sartorius) and scanned at 0 and 72 hours. IncuCyte® software was used to count the number of fluorescent nuclei in each well. The fold change in cell count from 0 to 72 hours in wells treated with increasing compounds concentrations (10 pts, 1/2 log dilution, 20 μM top concentration) was normalized to DMSO control wells. The normalized cell counts were fit with dose response curves and a GI50 was calculated.

CDK2/Cyclin E1 = CDK2/Cyclin E1 (Homo sapiens, UniProt P24941); test: CDK2/Cyclin E1 Caliper LabChip EZ Reader mobility shift assay; settings: read-out: Caliper Assay (CDK2/CCNE1): IC50; 2.5 nM CDK2/Cyclin E1, 100 μM ATP, 1.5 μM fluorescent peptide, 30 min preincubation
Procedure: Example A1: CDK2/Cyclin E1 Caliper Assay
Inhibition of CDK2/Cyclin E1 activity in the presence of compounds of the present disclosure was evaluated using a Caliper LabChip® EZ Reader mobility shift assay. In the assay, CDK2/Cyclin E1 (Eurofins, 14-475) catalyzed the phosphorylation of a fluorescently tagged peptide 5-FAM-QSPKKG-CONH2 (PerkinElmer, FL Peptide 18) which induced a difference in capillary electrophoresis mobility. The peptide substrate and product were measured, and the conversion ratio was used to determine the inhibition (as % activity and IC50 values) of CDK2/Cyclin E1. Reactions contained 50 mM HEPES pH 7.5, 10 mM MgCl2, 1 mM EDTA, 2 mM DTT, 0.01% Brij35, 0.5 mg/mL BSA, 0.1% DMSO, 2.5 nM CDK2/Cyclin E1, 100 μM ATP, and 1.5 μM fluorescent peptide substrate.
Dose titrations of inhibitors in 100% DMSO were combined with 3.25 nM CDK2/Cyclin E1 and 130 μM of ATP in reaction buffer. The mixtures were incubated for 30 minutes before the addition of fluorescent peptide substrate to initiate the kinase reaction. The final conditions were 2.5 nM CDK2/Cyclin E1, 100 μM ATP, and 1.5 μM fluorescent peptide. The reactions were stopped after 100 minutes with the addition of EDTA (400 mM final EDTA concentration). The stopped reactions were analyzed on a Caliper LabChip® EZ Reader II. […]

Structure (SMILES): Cc1ccc(CNC(=O)C2CN(C(=O)c3cnn(Cc4ccccc4)c3)CC23CN(C(=O)[C@H]2CC2(C)C)C3)nn1 (some centres unmarked)
- IC50 [1]: > 20 µM
- IC50 (CDK2/Cyclin E1): 1 to 10 µM
